The target in the assay is GST-E2 fusion protein (HCV E2) (hepatitis C virus (strain not stated for this construct)) (UniProt Q99IB8). Nature of the assay: pull-down; purified GST or GST-E2 added to RIPA lysate of HEK 293 cells expressing AIMP1/p43, 4°C; glutathione sepharose 4B beads; HNGT buffer (20 mM HEPES pH 7.5, 150 mM NaCl, 10% glycerol, 0.1% Triton X-100); western blot; only the target purified.

The chains behind the UniProt entries cited, without tags or fusion partners. Residues count along the entry.
UniProt Q99IB8, residues 384-750: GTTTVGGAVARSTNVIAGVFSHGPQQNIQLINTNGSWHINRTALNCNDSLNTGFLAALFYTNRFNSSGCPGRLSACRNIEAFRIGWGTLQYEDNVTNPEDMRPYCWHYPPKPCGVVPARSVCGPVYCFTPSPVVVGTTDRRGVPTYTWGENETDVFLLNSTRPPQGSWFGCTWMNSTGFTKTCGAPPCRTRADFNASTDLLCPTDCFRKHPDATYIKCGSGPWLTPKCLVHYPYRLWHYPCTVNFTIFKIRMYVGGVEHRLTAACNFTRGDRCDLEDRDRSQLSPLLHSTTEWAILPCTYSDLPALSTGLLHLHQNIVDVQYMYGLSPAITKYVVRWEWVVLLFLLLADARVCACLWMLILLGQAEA

Results are given in words; binding and its absence hold for the method and conditions named. In cells and extracts the contact can be indirect. Some results given as binding are weak or reduced against the parent protein; the word gives no strength.

B1: AIMP1/p43 expressed from a plasmid in HEK 293 cells (protein, UniProt Q12904 1-312)
chain: MANNDAVLKRLEQKGAEADQIIEYLKQQVSLLKEKAILQATLREEKKLRVENAKLKKEIEELKQELIQAEIQNGVKQIPFPSGTPLHANSMVSENVIQSTAVTTVSSGTKEQIKGGTGDEKKAKEKIEKKGEKKEKKQQSIAGSADSKPIDVSRLDLRIGCIITARKHPDADSLYVEEVDVGEIAPRTVVSGLVNHVPLEQMQNRMVILLCNLKPAKMRGVLSQAMVMCASSPEKIEILAPPNGSVPGDRITFDAFPGEPDKELNPKKKIWEQIQPDLHTNDECVATYKGVPFEVKGKGVCRAQTMSNSGIK
Regarding B1, the binding result is given as “binds”.

These data come from paper PMC4015952.
